Results are given in words; binding and its absence hold for the method and conditions named. In cells and extracts the contact can be indirect. A yes stands for co-enrichment or nearness to the bait. Other partners may have been found.
Molecular target: SP5–APEX2 fusion protein (human) (UniProt Q6BEB4)
Test: proximity labelling; HEK-293 cells transfected with SP5-APEX2; 48 h later 500 µM biotin-phenol for 30 min, 1 mM H2O2 for 1 min; lysis in RIPA, streptavidin beads, immunoblot

By UniProt entry, the sequences of proteins in these tests, tags left out.
UniProt Q6BEB4: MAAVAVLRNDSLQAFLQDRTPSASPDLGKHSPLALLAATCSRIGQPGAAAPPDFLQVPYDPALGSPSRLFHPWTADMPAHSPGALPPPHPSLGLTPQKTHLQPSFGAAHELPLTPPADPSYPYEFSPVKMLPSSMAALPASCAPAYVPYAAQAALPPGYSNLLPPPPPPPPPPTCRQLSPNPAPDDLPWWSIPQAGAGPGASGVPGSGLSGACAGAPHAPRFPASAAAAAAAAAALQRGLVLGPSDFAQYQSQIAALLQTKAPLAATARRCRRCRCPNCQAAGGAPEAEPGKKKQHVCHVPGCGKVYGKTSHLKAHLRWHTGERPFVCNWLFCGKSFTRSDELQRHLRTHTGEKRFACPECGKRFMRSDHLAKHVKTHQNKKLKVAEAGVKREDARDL
UniProt P35222: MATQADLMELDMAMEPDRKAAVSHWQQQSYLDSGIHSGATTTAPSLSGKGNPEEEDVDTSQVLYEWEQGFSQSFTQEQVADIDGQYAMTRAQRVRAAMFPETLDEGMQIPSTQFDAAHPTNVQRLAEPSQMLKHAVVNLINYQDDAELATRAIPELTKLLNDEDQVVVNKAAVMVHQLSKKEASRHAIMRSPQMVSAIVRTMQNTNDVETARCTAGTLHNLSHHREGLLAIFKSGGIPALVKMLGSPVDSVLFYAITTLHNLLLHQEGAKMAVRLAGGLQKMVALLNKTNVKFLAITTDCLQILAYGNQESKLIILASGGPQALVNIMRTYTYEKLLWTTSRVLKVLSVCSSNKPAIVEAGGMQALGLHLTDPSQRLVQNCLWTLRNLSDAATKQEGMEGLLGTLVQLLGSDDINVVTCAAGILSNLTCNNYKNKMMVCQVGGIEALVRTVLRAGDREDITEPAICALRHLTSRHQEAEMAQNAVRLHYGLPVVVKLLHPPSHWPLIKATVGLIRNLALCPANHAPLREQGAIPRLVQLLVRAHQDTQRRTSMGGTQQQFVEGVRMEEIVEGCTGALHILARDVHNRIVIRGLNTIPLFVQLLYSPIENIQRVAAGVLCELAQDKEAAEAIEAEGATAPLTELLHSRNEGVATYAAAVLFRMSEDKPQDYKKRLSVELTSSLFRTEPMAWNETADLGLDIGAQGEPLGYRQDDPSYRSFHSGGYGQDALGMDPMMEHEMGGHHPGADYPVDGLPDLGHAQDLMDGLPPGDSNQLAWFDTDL

binding: binds
Substance: β-catenin (from UniProt P35222 1-781)

— PMC5647328
